From the supplement of paper PMC11732987, “Enantioselective OTUD7B fragment discovery through chemoproteomics screening and high-throughput optimisation” (Communications Chemistry, 2025)
The other results are listed elsewhere or left out. The data scatter; read single values as rough.

Protein sequences, listed by entry. Tags and fused reporters are not part of them. Lines headed by an entry give the natural chain unless they say otherwise; changes in a name come on top. Residues count along the entry.
UniProt Q9Y4P3: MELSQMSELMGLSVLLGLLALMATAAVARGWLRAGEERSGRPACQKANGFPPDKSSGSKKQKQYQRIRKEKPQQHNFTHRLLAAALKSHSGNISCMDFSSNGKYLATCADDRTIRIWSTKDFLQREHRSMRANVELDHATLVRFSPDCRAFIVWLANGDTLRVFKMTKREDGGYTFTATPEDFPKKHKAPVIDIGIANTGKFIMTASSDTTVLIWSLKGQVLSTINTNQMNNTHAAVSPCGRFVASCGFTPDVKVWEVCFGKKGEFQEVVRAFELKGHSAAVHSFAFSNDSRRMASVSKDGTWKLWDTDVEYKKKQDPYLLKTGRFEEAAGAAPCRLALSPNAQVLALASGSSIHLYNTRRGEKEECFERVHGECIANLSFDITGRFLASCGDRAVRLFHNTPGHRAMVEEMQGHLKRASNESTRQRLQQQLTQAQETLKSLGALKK
UniProt Q9UPU7: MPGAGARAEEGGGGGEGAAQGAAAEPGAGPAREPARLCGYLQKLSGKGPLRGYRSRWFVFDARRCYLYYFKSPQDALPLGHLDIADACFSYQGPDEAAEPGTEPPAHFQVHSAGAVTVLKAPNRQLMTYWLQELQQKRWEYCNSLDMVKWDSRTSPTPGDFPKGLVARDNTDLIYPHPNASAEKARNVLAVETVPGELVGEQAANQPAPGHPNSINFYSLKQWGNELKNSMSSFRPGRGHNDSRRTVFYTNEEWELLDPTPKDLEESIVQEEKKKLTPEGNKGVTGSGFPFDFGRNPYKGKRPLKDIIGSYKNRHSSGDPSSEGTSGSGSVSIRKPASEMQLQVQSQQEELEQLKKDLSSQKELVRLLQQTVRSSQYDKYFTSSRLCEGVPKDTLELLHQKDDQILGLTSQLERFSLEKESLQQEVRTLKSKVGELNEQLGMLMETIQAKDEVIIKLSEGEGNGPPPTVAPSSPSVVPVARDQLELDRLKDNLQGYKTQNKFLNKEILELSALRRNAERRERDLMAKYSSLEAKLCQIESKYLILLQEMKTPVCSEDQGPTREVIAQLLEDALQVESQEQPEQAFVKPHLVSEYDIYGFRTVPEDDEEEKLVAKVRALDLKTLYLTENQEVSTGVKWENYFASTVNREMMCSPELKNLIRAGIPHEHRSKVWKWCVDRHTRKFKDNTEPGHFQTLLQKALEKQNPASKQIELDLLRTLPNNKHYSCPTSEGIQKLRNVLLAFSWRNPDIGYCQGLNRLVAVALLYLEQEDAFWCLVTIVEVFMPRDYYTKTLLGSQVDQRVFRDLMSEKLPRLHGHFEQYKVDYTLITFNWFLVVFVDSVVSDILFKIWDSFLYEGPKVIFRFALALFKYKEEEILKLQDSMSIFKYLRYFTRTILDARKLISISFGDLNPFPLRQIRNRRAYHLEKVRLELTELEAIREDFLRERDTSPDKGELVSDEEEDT
UniProt O60343, 749-768: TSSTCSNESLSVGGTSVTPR
UniProt O60343, 93-122: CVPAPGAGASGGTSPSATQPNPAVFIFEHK
UniProt Q9P0N9: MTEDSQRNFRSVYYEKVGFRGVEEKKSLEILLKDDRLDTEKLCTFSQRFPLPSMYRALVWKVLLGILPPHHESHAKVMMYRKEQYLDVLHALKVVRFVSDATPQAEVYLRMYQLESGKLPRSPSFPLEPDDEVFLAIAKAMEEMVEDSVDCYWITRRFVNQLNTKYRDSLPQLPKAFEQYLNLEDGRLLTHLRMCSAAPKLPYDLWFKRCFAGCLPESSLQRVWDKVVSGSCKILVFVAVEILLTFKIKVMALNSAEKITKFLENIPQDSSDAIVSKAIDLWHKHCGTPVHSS
UniProt Q5VWN6: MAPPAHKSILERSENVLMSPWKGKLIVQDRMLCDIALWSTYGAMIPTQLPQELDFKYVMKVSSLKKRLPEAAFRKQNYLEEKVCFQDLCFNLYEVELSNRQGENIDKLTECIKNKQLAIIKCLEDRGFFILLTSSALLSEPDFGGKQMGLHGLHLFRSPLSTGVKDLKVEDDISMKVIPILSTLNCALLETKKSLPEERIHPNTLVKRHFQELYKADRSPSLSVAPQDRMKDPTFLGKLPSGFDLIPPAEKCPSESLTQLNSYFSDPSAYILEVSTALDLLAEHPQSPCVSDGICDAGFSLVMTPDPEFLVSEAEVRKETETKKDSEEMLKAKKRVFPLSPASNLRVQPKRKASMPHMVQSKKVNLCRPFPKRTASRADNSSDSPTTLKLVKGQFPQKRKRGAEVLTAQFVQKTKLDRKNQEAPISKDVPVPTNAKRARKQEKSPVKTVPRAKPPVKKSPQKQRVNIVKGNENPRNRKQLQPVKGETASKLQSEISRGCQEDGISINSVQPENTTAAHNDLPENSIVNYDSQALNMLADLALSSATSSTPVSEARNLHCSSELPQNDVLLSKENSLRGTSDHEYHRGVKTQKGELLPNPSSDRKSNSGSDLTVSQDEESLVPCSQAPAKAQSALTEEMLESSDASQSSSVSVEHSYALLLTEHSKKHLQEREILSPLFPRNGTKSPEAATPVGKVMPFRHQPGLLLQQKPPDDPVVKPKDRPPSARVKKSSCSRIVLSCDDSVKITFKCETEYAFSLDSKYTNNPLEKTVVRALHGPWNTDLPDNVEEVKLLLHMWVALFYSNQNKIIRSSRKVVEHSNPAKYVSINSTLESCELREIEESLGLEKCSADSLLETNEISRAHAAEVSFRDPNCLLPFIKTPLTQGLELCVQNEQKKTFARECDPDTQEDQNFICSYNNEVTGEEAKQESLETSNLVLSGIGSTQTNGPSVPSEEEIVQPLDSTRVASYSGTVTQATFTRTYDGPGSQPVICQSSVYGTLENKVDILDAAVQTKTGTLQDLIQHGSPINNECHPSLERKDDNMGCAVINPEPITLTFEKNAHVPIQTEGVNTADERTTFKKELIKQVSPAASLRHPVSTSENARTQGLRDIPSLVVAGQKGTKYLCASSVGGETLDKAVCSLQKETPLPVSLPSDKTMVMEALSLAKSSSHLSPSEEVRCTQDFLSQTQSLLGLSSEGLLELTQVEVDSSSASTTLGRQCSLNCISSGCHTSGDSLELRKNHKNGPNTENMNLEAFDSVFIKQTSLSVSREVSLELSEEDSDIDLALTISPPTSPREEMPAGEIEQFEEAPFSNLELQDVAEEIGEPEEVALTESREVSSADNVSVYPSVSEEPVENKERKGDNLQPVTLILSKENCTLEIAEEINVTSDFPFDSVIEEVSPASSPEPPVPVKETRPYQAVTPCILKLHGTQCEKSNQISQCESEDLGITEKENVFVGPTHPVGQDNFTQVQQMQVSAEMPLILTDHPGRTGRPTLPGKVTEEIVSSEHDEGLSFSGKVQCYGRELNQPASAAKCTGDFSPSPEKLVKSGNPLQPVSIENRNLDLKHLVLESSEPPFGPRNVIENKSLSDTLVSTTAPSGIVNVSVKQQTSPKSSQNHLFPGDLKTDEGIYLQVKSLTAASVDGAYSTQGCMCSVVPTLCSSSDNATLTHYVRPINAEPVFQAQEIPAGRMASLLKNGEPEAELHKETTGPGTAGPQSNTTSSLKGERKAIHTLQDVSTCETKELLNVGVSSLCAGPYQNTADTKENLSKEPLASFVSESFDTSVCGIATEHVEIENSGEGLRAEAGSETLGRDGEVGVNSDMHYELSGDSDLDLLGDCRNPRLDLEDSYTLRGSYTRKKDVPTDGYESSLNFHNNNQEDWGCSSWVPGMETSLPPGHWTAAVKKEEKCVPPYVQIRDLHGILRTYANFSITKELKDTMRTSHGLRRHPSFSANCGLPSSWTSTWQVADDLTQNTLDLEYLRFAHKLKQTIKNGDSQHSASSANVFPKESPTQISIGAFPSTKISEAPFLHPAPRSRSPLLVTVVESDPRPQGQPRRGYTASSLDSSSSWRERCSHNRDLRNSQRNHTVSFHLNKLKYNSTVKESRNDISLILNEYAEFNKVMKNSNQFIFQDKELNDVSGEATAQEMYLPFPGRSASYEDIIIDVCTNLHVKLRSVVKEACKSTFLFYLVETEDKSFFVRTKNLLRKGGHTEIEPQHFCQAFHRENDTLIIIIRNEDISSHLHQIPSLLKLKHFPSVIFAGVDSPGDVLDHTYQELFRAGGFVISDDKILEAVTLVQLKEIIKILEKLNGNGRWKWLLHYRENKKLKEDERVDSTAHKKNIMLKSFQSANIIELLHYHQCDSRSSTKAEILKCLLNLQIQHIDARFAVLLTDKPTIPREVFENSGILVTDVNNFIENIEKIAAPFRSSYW
UniProt Q9C0D5: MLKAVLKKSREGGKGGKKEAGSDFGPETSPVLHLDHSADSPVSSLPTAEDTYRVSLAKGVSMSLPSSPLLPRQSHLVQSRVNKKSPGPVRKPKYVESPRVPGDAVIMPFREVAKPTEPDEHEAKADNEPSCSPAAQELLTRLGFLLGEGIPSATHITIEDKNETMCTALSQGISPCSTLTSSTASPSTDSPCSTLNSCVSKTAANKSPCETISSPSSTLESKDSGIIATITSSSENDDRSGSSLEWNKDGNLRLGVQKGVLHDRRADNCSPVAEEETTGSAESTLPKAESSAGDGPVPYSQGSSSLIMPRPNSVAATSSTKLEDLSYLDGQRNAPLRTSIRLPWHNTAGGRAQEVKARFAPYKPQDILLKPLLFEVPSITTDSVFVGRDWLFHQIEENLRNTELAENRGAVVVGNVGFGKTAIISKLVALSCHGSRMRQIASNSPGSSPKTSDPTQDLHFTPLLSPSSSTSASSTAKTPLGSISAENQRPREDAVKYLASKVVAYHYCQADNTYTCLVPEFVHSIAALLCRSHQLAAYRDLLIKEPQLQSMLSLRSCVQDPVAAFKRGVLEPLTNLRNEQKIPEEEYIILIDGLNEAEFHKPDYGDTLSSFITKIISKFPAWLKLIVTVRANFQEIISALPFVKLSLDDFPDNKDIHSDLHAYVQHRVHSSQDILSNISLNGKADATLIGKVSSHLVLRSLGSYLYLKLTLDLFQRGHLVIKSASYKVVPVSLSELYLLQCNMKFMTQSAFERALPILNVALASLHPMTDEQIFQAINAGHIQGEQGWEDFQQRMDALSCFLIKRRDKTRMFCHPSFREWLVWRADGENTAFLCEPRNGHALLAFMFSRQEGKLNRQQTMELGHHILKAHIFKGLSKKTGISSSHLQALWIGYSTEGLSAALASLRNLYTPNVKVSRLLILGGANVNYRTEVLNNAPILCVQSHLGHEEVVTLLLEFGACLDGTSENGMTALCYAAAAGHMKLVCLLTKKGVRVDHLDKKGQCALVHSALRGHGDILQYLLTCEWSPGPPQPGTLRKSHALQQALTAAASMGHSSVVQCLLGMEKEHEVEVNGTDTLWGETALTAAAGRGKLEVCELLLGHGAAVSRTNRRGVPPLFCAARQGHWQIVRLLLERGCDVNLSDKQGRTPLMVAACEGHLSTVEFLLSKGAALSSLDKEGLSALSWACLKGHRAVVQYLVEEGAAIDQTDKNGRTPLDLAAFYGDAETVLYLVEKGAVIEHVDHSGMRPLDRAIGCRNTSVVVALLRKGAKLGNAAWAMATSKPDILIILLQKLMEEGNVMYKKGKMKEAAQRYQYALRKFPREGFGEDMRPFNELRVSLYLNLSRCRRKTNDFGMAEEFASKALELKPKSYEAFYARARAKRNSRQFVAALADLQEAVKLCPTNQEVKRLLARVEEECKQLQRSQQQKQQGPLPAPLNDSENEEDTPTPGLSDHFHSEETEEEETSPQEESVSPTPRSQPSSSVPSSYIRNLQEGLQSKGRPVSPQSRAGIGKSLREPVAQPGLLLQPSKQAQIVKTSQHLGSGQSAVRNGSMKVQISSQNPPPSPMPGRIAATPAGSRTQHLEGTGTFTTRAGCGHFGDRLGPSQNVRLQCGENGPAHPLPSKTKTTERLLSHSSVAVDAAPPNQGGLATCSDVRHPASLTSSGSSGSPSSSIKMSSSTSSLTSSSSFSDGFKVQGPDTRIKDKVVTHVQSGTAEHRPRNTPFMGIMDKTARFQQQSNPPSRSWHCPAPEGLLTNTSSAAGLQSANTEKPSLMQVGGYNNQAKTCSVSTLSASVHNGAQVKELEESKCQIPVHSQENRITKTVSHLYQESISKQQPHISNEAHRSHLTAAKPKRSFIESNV
UniProt Q96J01: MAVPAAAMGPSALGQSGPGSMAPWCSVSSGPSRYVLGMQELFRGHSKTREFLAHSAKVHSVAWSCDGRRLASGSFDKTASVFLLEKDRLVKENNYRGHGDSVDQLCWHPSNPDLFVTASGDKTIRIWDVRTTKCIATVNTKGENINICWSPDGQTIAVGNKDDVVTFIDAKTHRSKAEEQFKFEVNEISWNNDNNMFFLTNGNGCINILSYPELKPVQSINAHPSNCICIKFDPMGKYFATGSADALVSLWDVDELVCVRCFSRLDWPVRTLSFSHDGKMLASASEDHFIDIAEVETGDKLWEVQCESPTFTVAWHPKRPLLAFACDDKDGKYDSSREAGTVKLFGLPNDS
UniProt P62380: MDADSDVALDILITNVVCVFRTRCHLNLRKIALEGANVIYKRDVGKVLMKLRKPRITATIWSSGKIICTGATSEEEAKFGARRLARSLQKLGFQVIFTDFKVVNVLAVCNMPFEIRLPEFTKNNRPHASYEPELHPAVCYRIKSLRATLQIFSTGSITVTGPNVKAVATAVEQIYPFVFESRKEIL

Legend:
[1] = compound: ClCC(=O)N[C@@H]1CCCc2ccccc12; assay: log2 mean competition ratio of IA-DTB cysteine labelling (DMSO/compound) (log2 ratio); higher = stronger cysteine engagement by compound; details: treatment time: 4 h, cell line lysate: HEK293T
Method: (§1)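 IA-DTB competitive cysteine chemoproteomics in HEK293T RIPA lysate. Lysates were treated with compound 29 or 30 at 50 or 200 µM for 4 h, then IA-DTB (500 µM, 1 h), trypsin-digested, NeutrAvidin-enriched and analysed by diaPASEF. Competition ratio = intensity DMSO / intensity compound (n=4 treated, n=64 DMSO); binding: mean log2 CR ≥ 1 and p ≤ 0.05 plus QC filters. Target is the cysteine site.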

[2] = compound: ClCC(=O)N[C@H]1CCCc2ccccc12; assay: as above; details: treatment time: 4 h, cell line lysate: HEK293T
Method: as §1

Target	log2 mean competition ratio ([1]; 50 µM)	log2 mean competition ratio ([1]; 200 µM)	log2 mean competition ratio ([2]; 50 µM)	log2 mean competition ratio ([2]; 200 µM)
TBL2 C247 (UniProt Q9Y4P3)	0.509	0.289	0.15	0.172
TBC1D2B C651 (UniProt Q9UPU7)	-0.043	0.0989	-0.0714	-0.0787
TCF7 C291	0.0166	-0.14	0.111	0.00497
TBC1D13 C282 (UniProt Q9NVG8)	0.0111	-0.242	-0.0913	-0.15
TEPSIN C352	0.408	0.0967	0.239	0.456
THOC5 C208 (UniProt Q13769)	0.11	-0.165	-0.116	-0.128
TBC1D22B C144 (UniProt Q9NU19)	-0.0696	0.188	0.0272	0.109
TBC1D22B C206 (UniProt Q9NU19)	0.0558	0.107	-0.00843	0.132
TBC1D9B C289 (UniProt Q66K14)	0.0235	0.0983	0.16	0.0613
TACC3 C749	0.187	-0.206	0.601	0.0652
TBC1D4 C753 (UniProt O60343)	-0.139	-0.0625	0.444	0.00196
TDRKH C160 (UniProt Q9Y2W6)	0.745	0.464	0.116	0.279
TCF20 C1163 (UniProt Q9UGU0)	0.477	0.032	0.194	0.0151
TAOK2 C1103 (UniProt Q9UL54)	0.1	0.00692	0.26	-0.0744
TENM2 C774	-0.264	-0.16	-0.268	-0.193
TAF8 C80	0.317	0.013	0.139	-0.0365
TBCD C457	0.0788	-0.0271	-0.0092	0.0093
TFB1M C304 (UniProt Q8WVM0)	0.127	0.0371	0.0682	0.00995
TERF2 C207 (UniProt Q15554)	-0.203	-0.324	0.214	-0.182
TFCP2 C369 (UniProt Q12800)	0.0615	-0.0803	-0.313	-0.182
THOP1 C350 (UniProt P52888)	0.313	-0.24	0.0169	-0.316
TBC1D7 C43 (UniProt Q9P0N9)	0.288	0.243	0.0787	0.0641
TCF25 C367 (UniProt Q9BQ70)	-0.242	0.0374	-0.416	0.0339
TFB2M C383 (UniProt Q9H5Q4)	0.141	0.0875	0.173	0.0593
TEX264 C165 (UniProt Q9Y6I9)	0.456	0.0659	0.289	0.266
TBC1D4 C885 (UniProt O60343)	-0.23	-0.169	-0.201	-0.0919

Target	log2 mean competition ratio ([1]; 50 µM)	log2 mean competition ratio ([1]; 200 µM)	log2 mean competition ratio ([2]; 50 µM)	log2 mean competition ratio ([2]; 200 µM)
TAF1C C831 (UniProt Q15572)	0.237	-0.0162	0.116	0.00182
TELO2 C813 (UniProt Q9Y4R8)	-0.123	0.289	0.0212	-0.0185
TELO2 C141 (UniProt Q9Y4R8)	-0.352	0.333	0.123	0.298
TICRR C1694 (UniProt Q7Z2Z1)	0.142	0.236	0.181	0.245
TBC1D4 C225 (UniProt O60343)	-0.19	0.187	-0.167	0.113
TBCA C67	-0.201	-0.22	0.297	0.00176
TASOR2 C1423 (UniProt Q5VWN6)	-0.0918	0.0869	0.13	-0.0816
TBC1D24 C161 (UniProt Q9ULP9)	-0.0292	0.0819	-0.0379	0.0991
TBC1D13 C36 (UniProt Q9NVG8)	0.0213	-0.41	0.145	-0.192
TANC1 C800 (UniProt Q9C0D5)	0.33	-0.148	0.215	0.384
TBX3 C404 (UniProt O15119)	-0.154	0.393	-0.0948	0.374
TCF7L2 C372	-0.171	-0.271	0.175	-0.0586
TBL2 C335 (UniProt Q9Y4P3)	0.123	0.197	0.255	0.249
TARBP1 C1556 (UniProt Q13395)	0.0295	-0.283	-0.325	-0.174
TAF9;TAF9B C121;(C121)	0.498	0.235	0.344	0.223
TCP1 C397 (UniProt P17987)	0.0268	-0.428	0.579	-0.377
THOC3 C134 (UniProt Q96J01)	0.0131	-0.251	0.166	-0.451
TBL2 C259 (UniProt Q9Y4P3)	0.355	-0.0402	0.0623	-0.12
TDRD7 C600 (UniProt Q8NHU6)	-0.0604	-0.733	0.0116	-0.519
TBC1D4 C93 (UniProt O60343)	-0.00142	-0.084	0.501	-0.144
TANC1 C1594 (UniProt Q9C0D5)	0.181	0.184	0.248	0.219
TBC1D2B C726 (UniProt Q9UPU7)	-0.0689	0.0998	0.214	0.018
TFIP11 C383 (UniProt Q9UBB9)	0.1	0.0407	0.0195	-0.139
TAF6L C230 (UniProt Q9Y6J9)	0.25	0.352	-0.752	0.0704
THUMPD1 C222 (UniProt Q9NXG2)	-0.881	-0.194	-0.596	-0.288
TAB3 C635 (UniProt Q8N5C8)	-0.128	0.0551	-0.168	0.459

Target	log2 mean competition ratio ([1]; 50 µM)	log2 mean competition ratio ([1]; 200 µM)	log2 mean competition ratio ([2]; 50 µM)	log2 mean competition ratio ([2]; 200 µM)
TFAP4 C29 (UniProt Q01664)	0.332	0.181	0.0151	-0.0983
TASOR2 C1739 (UniProt Q5VWN6)	-0.764	0.0619	-0.374	0.138
TBC1D2B C554 (UniProt Q9UPU7)	-0.226	0.306	-0.351	-0.0152
TECPR2 C371 (UniProt O15040)	-0.0205	0.0466	-0.012	0.328
TANC1 C1136 (UniProt Q9C0D5)	-0.386	-0.137	-0.246	0.209
TAB1 C235 (UniProt Q15750)	-0.178	-0.388	0.0358	0.128
TACC1 C174 (UniProt O75410)	0.0606	-0.154	0.279	-0.172
TANC2 C507 (UniProt Q9HCD6)	-0.0092	-0.0625	-0.0117	-0.00804
TBC1D24 C29 (UniProt Q9ULP9)	-0.144	0.0123	-0.317	0.152
TACC1 C219 (UniProt O75410)	0.111	-0.236	0.188	-0.112
TAPT1 C487 (UniProt Q6NXT6)	0.412	-0.106	-0.0287	-0.106
TENT2 C217 (UniProt Q6PIY7)	0.198	0.196	-0.221	0.0292
TFAP2C C209	-0.391	0.0715	-0.279	0.292
THAP4 C269 (UniProt Q8WY91)	-0.0963	-0.156	-0.194	-0.0668
TACC3 C206	0.0234	0.103	0.244	0.375
TBPL1 C68 (UniProt P62380)	0.223	-0.328	-0.146	-0.0436
TAP2 C353 (UniProt Q03519)	0.00893	0.872	0.215	0.783
TBC1D12 C109 (UniProt O60347)	-0.152	0.176	0.127	0.238
TEX264 C68 (UniProt Q9Y6I9)	-0.0698	-0.0676	-0.626	-0.125
TARBP1 C202 (UniProt Q13395)	0.644	-0.096	-0.412	-0.126
TDRD7 C388 (UniProt Q8NHU6)	-0.129	-0.023	-0.0315	-0.0827
TBCD C269	0.132	0.00346	0.0466	-0.0116
TICRR C174 (UniProt Q7Z2Z1)	-0.362	0.305	0.219	0.209
TDP1 C48 (UniProt Q9NUW8)	0.125	0.116	0.158	0.214

Single records (already shown). Values in the order: log2 mean competition ratio ([1]; 50 µM)	log2 mean competition ratio ([1]; 200 µM)	log2 mean competition ratio ([2]; 50 µM)	log2 mean competition ratio ([2]; 200 µM)
THUMPD1 C222 (UniProt Q9NXG2) as listed: -0.881	-0.194	-0.596	-0.288
TBC1D2B C554 (UniProt Q9UPU7) as listed: -0.226	0.306	-0.351	-0.0152
TFAP4 C29 (UniProt Q01664) as listed: 0.332	0.181	0.0151	-0.0983
TASOR2 C1739 (UniProt Q5VWN6) as listed: -0.764	0.0619	-0.374	0.138
